# Laboratory results reported in patent publication US20150182667A1, “Composition with Biofilm Dispersal Agents” (Vanderbilt University, priority 2012, published 2015).
# Some results were stated once for a whole list of compounds, not compound by compound.
# Assay: Release of D-AAs from PUR scaffolds in PBS (HPLC)
# Type: physicochemical
# Details: PUR scaffold with 10 wt % D-AA mixture
# Experimental: Also, kinetic release assays were performed on the PUR scaffolds by incorporating 10 wt % of a 1:1:1 mixture of D-Tr:D-Pro:D-Met incubated in PBS for up to 8 weeks. The medium was be sampled twice weekly and analyzed for D-AAs by HPLC.
# PUR scaffolds incorporating 10 wt % of a 1:1:1 mixture of D-Met:D-Pro:D-Trp were incubated in PBS at 37° C. under static conditions for up to 8 weeks. This mixture was evaluated in vitro, in vivo and in the release kinetics tests to account for potential interactions between D-AAs during release. The medium was sampled on days 1, 2, 4, 7, 10, 14, 21, and 28 and analyzed for D-AAs by HPLC using a system equipped with a Waters 1525 binary pump and a 2487 Dual-Absorbance Detector at 200 nm. Samples of released D-AAs were eluted through an Atlantis HILIC Silica column (5 μm particle size, 4.6 mm diameter×250 mm length) using an isocratic mobile phase flowing at 1 mL/min. The mobile phase contained 2.5 mM potassium dihydrogen phosphate with pH=2.85 (A) and Acetonitrile (B) at a ratio of A25:B75. The column oven temperature was maintained at 30° C. Sample concentration was determined in reference to an external standard curve using the Waters Breeze system. Standard curves were prepared in the following concentration ranges: (1) 7.8 μg/mL to 1 mg/mL for D-Met and D-Pro and (2) […] to 100 μg/mL for D-Trp.
smiles,measurement,value
"N[C@H](Cc1c[nH]c2ccccc12)C(=O)O [D-Trp, D-tryptophan]",duration of sustained release after initial burst,up to 21 days
